Measurements reported in PubChem BioAssay AID504810 (National Center for Advancing Translational Sciences (NCATS), 2011).
The whole screen tested about 330,000 compounds, of which about 670 (0.2%) were called active. Inconclusive results, whose numbers are uncertain, are shown with a selection of clear calls.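 How the source made its calls: active means activity change below a set negative limit, meaning inhibition stronger than a set level (cut at about -70% in these data); inconclusive means activity change between two set negative limits; inactive means the rest.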

Chains of the proteins cited; added tags and fusions are not shown.
UniProt P16473, whole entry, looked up: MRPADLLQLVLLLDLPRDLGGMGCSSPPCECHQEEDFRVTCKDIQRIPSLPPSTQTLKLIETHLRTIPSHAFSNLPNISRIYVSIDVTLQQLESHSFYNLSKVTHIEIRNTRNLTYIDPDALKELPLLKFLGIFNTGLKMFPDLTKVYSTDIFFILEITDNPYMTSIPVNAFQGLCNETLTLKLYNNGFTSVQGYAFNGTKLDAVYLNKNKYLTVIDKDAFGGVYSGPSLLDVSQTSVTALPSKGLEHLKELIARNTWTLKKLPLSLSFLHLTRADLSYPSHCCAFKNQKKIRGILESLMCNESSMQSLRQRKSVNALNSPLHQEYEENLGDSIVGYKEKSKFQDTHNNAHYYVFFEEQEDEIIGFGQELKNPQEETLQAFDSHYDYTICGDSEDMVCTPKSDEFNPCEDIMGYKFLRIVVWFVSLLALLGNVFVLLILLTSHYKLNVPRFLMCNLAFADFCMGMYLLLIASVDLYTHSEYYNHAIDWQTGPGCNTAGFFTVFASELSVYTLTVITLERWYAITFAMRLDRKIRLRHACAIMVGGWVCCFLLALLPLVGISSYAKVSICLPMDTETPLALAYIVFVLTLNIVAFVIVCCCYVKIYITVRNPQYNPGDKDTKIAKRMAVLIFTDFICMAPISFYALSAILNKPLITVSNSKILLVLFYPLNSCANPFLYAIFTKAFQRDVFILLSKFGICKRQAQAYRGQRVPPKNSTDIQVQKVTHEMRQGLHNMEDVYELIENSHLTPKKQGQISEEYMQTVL

target: Thyrotropin receptor (Homo sapiens) (UniProt P16473); test: Antagonists of the Thyroid Stimulating Hormone Receptor: HTS campaign; conditions: TSHR-expressing cells, TSH-stimulated cAMP HTRF, 2 h; at 11.5 µM; stronger effect = lower value
Procedure, shortened: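 Inhibition of cAMP made by TSHR-expressing cells under TSH stimulation (4nM final, EC80; 2 h, 37 deg C) is quantified with a one-step lysis HTRF kit, anti-cAMP cryptate versus cAMP-d2.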
On the % scale 0 is the no-effect control and ±100 the full control effect.

Activity change, negative = inhibition, active:
CC1=C/C(=N\OS(=O)(=O)c2ccccc2)C(C(C)C)=CC1=O -84.5%, O=[N+]([O-])c1c(Nc2ccccc2O)cc(Cl)c2nonc12 -76.5%, C#C[C@]1(OC(C)=O)CCC2C3CCC4=CC(=O)CC[C@@H]4C3CC[C@@]21C (stereo not given in full) -87.7%, CSc1cccc(NC(=O)CN2C(=O)COc3ccc(S(=O)(=O)N4CCOCC4)cc32)c1 -134%, CS(=O)(=O)c1ncc(Cl)c(C(=O)Nc2ccc(OC(F)F)cc2)n1 -73.6%, COc1ccc(-c2csc(/C(C#N)=C\c3ccc(O)c([N+](=O)[O-])c3)n2)cc1OC -72%, CC(=O)Oc1c(C)cc(Cl)cc1C(=O)Nc1ccc([N+](=O)[O-])cc1Cl -82.3%, COc1cccc(-c2cc(C(=O)Nc3cc(C)n(Cc4ccc(Cl)cc4)n3)no2)c1 -73.6%, CCc1cc(CNC(=O)CC2C(=O)NCCN2Cc2ccc(-c3ccccc3)cc2)on1 (stereo not given) -113%, Cc1ccc(S(=O)(=O)NCCNS(=O)(=O)c2ccc(C)cc2)cc1 -82.9%, COc1ccc(N2CCN(C(=O)[C@H](C)NC(=O)c3ccccc3Cl)CC2)cc1 -98.6%, COc1ccc(NC(=O)CSc2nc3[nH]c(=O)[nH]c(=O)c3s2)cc1OC -73.4%

Activity change, negative = inhibition, inconclusive:
O=C(c1ccco1)N1N=C(C2CCCCC2)CC1(O)C(F)(F)F (stereo not given) -61.6%, O=C1CCCc2ccccc2N1Cc1ccc(Cl)cc1Cl -50.6%, CCN1/C(=C/C(C)=O)Sc2ccc(OC)cc21 -50.8%, CC(C)NC(=O)c1sc(=S)n2c1[nH]c(=O)c1ccc(C(=O)NCCc3ccc(Cl)cc3)cc12 -52.7%, Cc1ccc(C)c(S(=O)(=O)N2CCCOC2CNC(=O)C(=O)NCCC2=CCCCC2)c1 (stereo not given) -68.6%, Cc1ccc(-n2[nH]c(C)c(/C=N/Nc3ccc([N+](=O)[O-])cc3[N+](=O)[O-])c2=O)cc1 -64%, CCCCNc1c(-c2ccc(SC(C)CC)c(OC)c2)nc2ccc(C)cn12 (stereo not given) -54.4%, Cc1cc(OCC(=O)Nc2cccc(S(=O)(=O)N3CCCC3)c2)ccc1Cl -53.3%, Cc1nnc(N2C(=O)c3cccc4c([N+](=O)[O-])ccc(c34)C2=O)s1 -68.1%, C#CCn1c(=NC(=O)c2cccs2)sc2cccc(OC)c21 -67.5%, CC(CCc1ccccc1)NC(=O)COC(=O)C12CC3CC(CC(Br)(C3)C1)C2 (stereo not given) -52.3%, Cc1cc(C(=O)CSc2nnc(-c3cccs3)o2)c(C)n1-c1ccccc1 -57.3%, COc1cccc(Nc2nc3ccccc3nc2NS(=O)(=O)c2cccs2)c1 -59.1%, CCn1c(=O)c(C(=O)Nc2nc3ccccc3[nH]2)c(O)c2ccccc21 -52.6%, COc1ccc(Nc2nc(-c3ccccc3)nc3ccccc23)cc1 -58.2%, COc1ccc(CCNC(=O)c2ccc(Cl)c(S(=O)(=O)N3CCCCCC3)c2)cc1 -64.1%, Cc1nc2ccccc2n1CCOc1ccccc1 -51.1%, C=CCN1C(=Nc2cccnc2)SCC1(O)c1ccc(C)cc1 (stereo not given) -66.7%, Cc1ccc([N+](=O)[O-])cc1NC(=O)CN(C1CCCCC1)S(=O)(=O)c1ccc(Cl)cc1 -63.5%, CC12CCC(=O)N1C(C(=O)Nc1nc3c(F)cc(F)cc3s1)CS2 (stereo not given) -54.2%, CC(C)(C)C1CCC2(CC1)C(C#N)=C(SCC(=O)Nc1ccccc1)NC(=O)C2C#N (stereo not given) -51.9%, CC(=O)OC1COC(OC2C(O)C(C)OC(OC3C(OC4CCC5(C)C(CCC6(C)C5CC=C5C7CC(C)(C)CCC7(C(=O)O)CCC56C)C4(C)CO)OCC(O)C3O)C2O)C(O)C1OC(C)=O (stereo not given) -60.6%, Brc1cc2c(cc1/C=N/Nc1nc(N3CCOCC3)nc(N3CCOCC3)n1)OCO2 -55.9%, CCOC(=O)[C@@H]1[C@H]2COc3cc(OC)ccc3[C@H]2N2C(=O)N(c3ccc(C(F)(F)F)cc3)C(=O)[C@]12C -62.9%, CCc1ccc(-c2nnn(CCC(=O)OC)n2)cc1 -52.3%, O=C(OCn1ncc(Cl)c(Cl)c1=O)c1cccc(C(F)(F)F)c1 -55.3%, Cc1c(C)n(CCc2ccccc2)c2ncnc(NCCCO)c12 -57.2%, CC(=O)Nc1ccc(NC(=O)c2nc(S(=O)(=O)Cc3ccccc3)ncc2Cl)cc1 -59.5%, CCOc1ccccc1CN1CCNC(=O)C1CC(=O)NCCC1=CCCCC1 (stereo not given) -51.4%, O=C1NC(=S)/C(=C\c2ccc(-c3ccccc3Cl)o2)S1 -55.3%, O=C(Nc1nc(-c2cccs2)c(-c2cccs2)s1)C1CCCC1 -56.7%, CCSc1nc(C)cc(C)c1S(=O)(=O)c1ccccc1C -59.7%, [O-][n+]1c2c(c3c4non(O)c4ccc31)CCCC2 -62.5%, O=[N+]([O-])c1cccc(NC(=S)Nc2nc(-c3ccccc3Cl)cs2)c1 -59.6%, CC(=O)NC12CC3CC(C1)CC(C(=O)Oc1ccc(N(C)S(=O)(=O)c4cc(C)ccc4C)cc1)(C3)C2 -60.8%, O=C1NC(=O)C(=C2CCCCCC2)S1 -59.4%, O=C(OCn1ncc(Cl)c(Cl)c1=O)c1ccccc1Cl -54.8%, Cc1ccc2cc(C)c(Sc3nnnn3-c3ccccc3)nc2c1 -59.3%, O=C(Oc1cccc(Nc2ncnc3ccccc23)c1)c1ccccc1Cl -52.8%, Cc1ccc2c(c1)N(CC(=O)N1CCCC1)C(=O)C(C)O2 (stereo not given) -53.3%, Cc1ccc(/C=N/n2c(COc3ccccc3)n[nH]c2=S)s1 -58.8%, CC(=O)Nc1ccc(S(=O)(=O)NC(C(=O)O)C(C)O)cc1 (stereo not given) -51.2%, O=C(OCCN1C(=O)c2cccc3c(N4CCOCC4)ccc(c23)C1=O)c1ccccc1Cl -53.6%, Cc1cc(OC(C)C(=O)Nc2cccnc2)ccc1Cl (stereo not given) -53.2%, O=C(COc1ccccc1Cl)Nc1cc(NC(=O)COc2ccccc2Cl)cc(C(=O)O)c1 -56.1%, COc1ccc(COc2ccc3ccc(=O)oc3c2)cc1 -64.3%

Activity change, negative = inhibition, inactive:
COc1ccccc1NS(=O)(=O)c1cc([N+](=O)[O-])ccc1N/N=C/c1c(C)[nH]c2ccccc12 -6.53%, Nc1c(C(=O)Nc2ccccc2)c2nc3ccccc3nc2n1CCCN1CCOCC1 -0.65%, Fc1ccc2[nH]c3c(NCCN4CCOCC4)ncnc3c2c1 -5.62%, COc1cccc(CNC(=O)CCC2CCCN(Cc3cc4ccccc4o3)C2)c1 (stereo not given) 25.5%, Cc1ccc(S(=O)(=O)CC(C)N2CCOCC2)c(S(=O)(=O)CC(C)N2CCOCC2)c1 (stereo not given) -1.27%, COCCCNC(=O)C[C@H]1C[C@H](C(=O)N2CCCCC2)[C@@]2(CCc3ccccc3)c3[nH]c4ccc(Cl)cc4c3CCN2C1=O -8.96%, O=C(c1ccc(S(=O)(=O)NCc2ccco2)cc1)N1CCN(Cc2ccccc2F)CC1 -11.7%, Cc1cc(C)n2nc(C(=O)N3CCN(c4ccc([N+](=O)[O-])cc4)CC3)nc2n1 -0.964%, O=C(NNc1ccc(-c2csnn2)cc1)c1cc(Cl)cc(Cl)c1 3.8%, O=C(COc1cccc2ccccc12)Nc1ccc(Cl)cc1C(=O)O -49.8%, Cc1c(NC(=O)c2cc(-c3cccs3)on2)c(=O)n(-c2ccccc2)n1C 1.32%, Cc1cccc(NC(=S)N2CCN(S(=O)(=O)c3ccccc3)CC2)c1 4.39%, C(=N\Nc1nc2ccccc2[nH]1)/c1ccc2c(c1)OCCO2 -3.98%, CCN(CC)C(=O)NC1CC2CCCC(C1)N2Cc1ccccc1 (stereo not given) -4.85%, COc1ccc([N+](=O)[O-])cc1NC(=O)CSCc1cc(C)cc(C)c1 20.7%, Cc1cc(C)c(NC(=O)C2CCCN2C)c(C)c1 (stereo not given) -5.59%, COc1ccc(OC)c(NC(=O)c2cc3oc4ccccc4c3cc2O)c1 -21.7%, C[C@@H](CO)NC(=O)c1ccc2c3n(nc2c1)-c1ccccc1CO3 -5.6%, Cc1cc(C)c(-n2nnnc2SCC(=O)c2cccs2)c(C)c1 -6.96%, Cc1cccc(Nc2nn3c(=O)c4ccccc4nc3s2)c1 9.74%, Cc1cccc(C(=O)OCC(=O)c2ccc(CC(=O)N3CCOCC3)s2)c1C 11.9%, N#Cc1ccc(OCC(O)CN2CCC(C(O)(c3ccccc3)c3ccccc3)CC2)cc1 (stereo not given) 6.17%, C=CCNC(=O)c1ccc(OC)cc1 8.87%, Cc1ccc(C(=O)NCCc2ccccc2)cc1S(=O)(=O)N1CCOCC1 -6%, CCN(CC)CCCNc1ncnc2scc(-c3ccc(F)cc3)c12 -9.7%, COc1ccc2c(c1OC)C(=O)N1c3ccccc3C(=O)N(c3ccc(F)cc3)C21 (stereo not given) -12.1%, CC1CCCCC1NC(=O)c1ccc2c(c1)OCCO2 (stereo not given) 10.3%
